No constants are given. Whether binding was seen depends on the method and setting. Binding seen in cells or lysates may run through a third protein. Here binding means that the protein was enriched with, or labelled near, the bait; the list need not be complete.

In the test the target is His6 PfGEXP15 UD, shorter fragment (853-1266 bp) (Plasmodium falciparum) (UniProt Q8IJ89). Kind of test: affinity purification with mass spectrometry.

On to exportin-7 (from UniProt C0H530), for which the binding entry is on record as “binds”.

The values are drawn from paper doi:10.1101/2023.07.04.547663.
